Values quoted from earlier work in PMC4684479 (Molecular imaging and biology : MIB : the official …, 2016).

Details: pigs; cited from earlier work

CC1(C)C(/C=C/C=C/C=C/C=C2\N(CCCCS(=O)(=O)[O-])c3ccc4ccccc4c3C2(C)C)=[N+](CCCCS(=O)(=O)[O-])c2ccc3ccccc3c21.[Na+] [ICG]
blood half-life (t1/2β): 3.6 min
